Results are given in words; binding and its absence hold for the method and conditions named.
Biological target: T1, p130CAS (UniProt P56945)
T1 sequence: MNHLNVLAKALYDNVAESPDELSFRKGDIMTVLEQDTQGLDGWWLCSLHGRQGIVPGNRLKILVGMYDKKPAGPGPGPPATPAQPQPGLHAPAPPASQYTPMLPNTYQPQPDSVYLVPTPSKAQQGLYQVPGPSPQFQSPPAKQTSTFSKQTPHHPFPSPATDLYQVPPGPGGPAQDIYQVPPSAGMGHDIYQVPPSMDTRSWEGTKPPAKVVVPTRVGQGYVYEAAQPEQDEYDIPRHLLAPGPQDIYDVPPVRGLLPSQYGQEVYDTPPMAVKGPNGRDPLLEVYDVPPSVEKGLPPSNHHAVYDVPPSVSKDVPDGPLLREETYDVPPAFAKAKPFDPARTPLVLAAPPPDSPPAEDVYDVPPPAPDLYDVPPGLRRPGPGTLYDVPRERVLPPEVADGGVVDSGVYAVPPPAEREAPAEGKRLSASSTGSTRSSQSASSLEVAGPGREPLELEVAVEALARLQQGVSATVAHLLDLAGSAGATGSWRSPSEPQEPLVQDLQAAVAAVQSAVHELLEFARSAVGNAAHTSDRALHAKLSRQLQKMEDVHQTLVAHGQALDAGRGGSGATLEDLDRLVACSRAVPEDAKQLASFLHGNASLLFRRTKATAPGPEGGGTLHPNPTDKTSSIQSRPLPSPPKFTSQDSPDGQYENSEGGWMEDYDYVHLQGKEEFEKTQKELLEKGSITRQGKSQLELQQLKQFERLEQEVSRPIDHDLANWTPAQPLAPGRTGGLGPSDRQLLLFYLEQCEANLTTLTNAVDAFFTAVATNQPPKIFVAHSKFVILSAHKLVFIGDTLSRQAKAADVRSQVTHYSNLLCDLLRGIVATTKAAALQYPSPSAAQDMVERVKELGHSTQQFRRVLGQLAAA
Experiment: fluorescence cross-correlation spectroscopy (FCCS); cytosol of live REF52 cells co-expressing one protein tagged with meGFP and the other with TDmKate2; 37°C; association score against the negative control meGFP + TDmKate2 (Fisher's exact test, p-value <0.0001); apparent Ka

Sequences of proteins named here, by UniProt entry; tags and fusion partners are left off.
UniProt P50552: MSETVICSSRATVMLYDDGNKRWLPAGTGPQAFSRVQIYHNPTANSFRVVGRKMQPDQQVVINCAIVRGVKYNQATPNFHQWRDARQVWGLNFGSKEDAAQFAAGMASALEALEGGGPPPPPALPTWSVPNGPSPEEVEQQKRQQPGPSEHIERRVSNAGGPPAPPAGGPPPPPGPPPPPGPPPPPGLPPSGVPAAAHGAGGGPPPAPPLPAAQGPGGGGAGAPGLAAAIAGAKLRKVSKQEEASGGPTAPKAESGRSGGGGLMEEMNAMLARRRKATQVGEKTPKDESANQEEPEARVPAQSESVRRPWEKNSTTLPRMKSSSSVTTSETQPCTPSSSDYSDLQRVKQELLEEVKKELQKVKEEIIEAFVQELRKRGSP

VASP (from UniProt P50552 1-380)
binding: no binding

Source: article PMC4040925
